Results taken from patent US5830863A, “Neurokinin A antagonists” (priority 1996, dated 1998).
For part of these data: Part of at least one peptide drawing is inferred or uncertain, most often the ends. For part of these data: For at least one compound, name, drawing or mass did not settle the structure. Residues, ends and D or L forms follow the SMILES beside them.

Assays:
[1] = system: hamster urinary bladder (NKA-mediated contractile activity); test: hamster urinary bladder contraction preparation; format: cell-based, male golden Syrian hamsters; settings: for contractile effect of test compound alone: up to concentrations of 10 μM, three separate hamster bladder tissues each
NKA receptor = biological target: T1, NKA receptor (Mesocricetus auratus, UniProt P51144); test: phosphatidylinositol (PI) turnover in hamster urinary bladder; format: cell-based; settings: NKA-induced PI turnover; 1, 10 and 100 μM antagonist
T1 construct: displace I125 labeled NKA from hamster urinary bladder; from tissue; host or cells: hamster urinary bladder (membranes in A1, chopped tissue in A4)
T1 sequence (P51144 1-384): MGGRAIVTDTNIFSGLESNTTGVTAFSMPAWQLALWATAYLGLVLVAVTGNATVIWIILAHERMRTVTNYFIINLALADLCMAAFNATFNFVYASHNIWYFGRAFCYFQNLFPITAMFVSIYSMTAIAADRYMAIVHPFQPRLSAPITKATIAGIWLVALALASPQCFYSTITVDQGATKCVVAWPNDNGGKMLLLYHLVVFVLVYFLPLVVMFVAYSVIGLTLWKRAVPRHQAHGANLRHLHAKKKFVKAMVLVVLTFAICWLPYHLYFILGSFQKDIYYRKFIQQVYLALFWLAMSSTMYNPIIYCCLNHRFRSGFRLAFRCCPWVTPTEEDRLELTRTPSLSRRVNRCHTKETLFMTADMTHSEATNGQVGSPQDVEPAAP
Description: The abscissa (x-axis) logarithmically indicates the concentration in nanomolar (nM) of agonist or antagonist of the NKA receptor. The ordinate (y-axis) indicates the observed PI turnover as a percentage of control. […] The ordinate (y-axis) indicates the observed PI turnover as a percentage of control. […] Urinary bladders from several hamsters were pooled and chopped at 350 μm with a tissue chopper. The chopped tissue was then incubated in 37° C. Krebs-Hepes buffer with fresh buffer changes every 15 minutes for 30 minutes. The tissue was then incubated in this buffer containing 100-200 μCi of ^3 H-inositol at 37° C. […] Test compound was also evaluated alone at the indicated concentrations to test for agonist activity. […] 50 μl of the bottom phase (chloroform) was withdrawn from each tube and placed in a counting vial, dried, and counted in scintillation fluid. The material on the columns was washed in order with: 1) 10 ml of water 2) 5 ml of 5 mM disodium tetraborate/60 mM sodium formate 3) 10 ml of 1M ammonium formate in 0.1M formic acid The final (third) wash was collected and one ml was mixed with 6 ml of ACS scintillant and counted. The ratio of these counts (total inositol phosphates) to the corresponding organic phase counts was then calculated for each sample. […]

[2] = biological target: T2, cloned NK-2 receptor (SKLKB82#3 cell line) (Bos taurus, UniProt P05363); test: I125 NKA binding to SKLKB82#3 cloned NK-2 receptor cell line; settings: scraped cell pellet
T2 construct: expressed in transfected cells; host or cells: SKLKB82#3 cell line (scraped cell pellet)
T2 sequence (P05363 1-384): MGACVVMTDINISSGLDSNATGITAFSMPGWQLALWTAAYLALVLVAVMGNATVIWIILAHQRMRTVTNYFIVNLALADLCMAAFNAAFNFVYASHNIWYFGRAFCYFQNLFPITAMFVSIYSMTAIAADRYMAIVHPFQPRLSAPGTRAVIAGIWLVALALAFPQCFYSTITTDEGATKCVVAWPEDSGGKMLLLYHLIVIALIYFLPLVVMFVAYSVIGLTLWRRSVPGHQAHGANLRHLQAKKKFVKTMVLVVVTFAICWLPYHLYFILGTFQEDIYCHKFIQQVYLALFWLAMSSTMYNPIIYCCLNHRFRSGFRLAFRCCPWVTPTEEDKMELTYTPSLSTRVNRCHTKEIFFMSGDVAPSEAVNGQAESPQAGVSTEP
Description: Values given indicate the concentration in nanomoles of antagonist to reach the IC50 of the neurokinin A (NKA) receptor. SKLKB82#3 represents a cloned NK-2 receptor cell line; the sample is prepared from the scraped cell pellet for assay as earlier described for the hamster urinary bladder preparations. NK-1 represents a substance P receptor preparation from rat salivary gland; receptors are prepared as earlier described for the hamster urinary bladder preparations.

[3] = biological target: T3, neurokinin A (NKA) receptor (NK-2) (Mesocricetus auratus, UniProt P51144); test: displacement of I125 labeled NKA from hamster urinary bladder membranes; format: binding
T3 construct: displace I125 labeled NKA from hamster urinary bladder; from tissue; host or cells: hamster urinary bladder (membranes in A1, chopped tissue in A4)
T3 sequence (P51144 1-384): T1 sequence (P51144 1-384)
Text: The abscissa (x-axis) logarithmically indicates the concentration in nanomoles of agonist of antagonist of the neurokinin A (NKA) receptor. The ordinate (Y-axis) indicates the observed specific binding for each tested agonist or antagonist measured as a percentage of maximum specific binding.
Agonists tested were NKA and fragments of NKA consisting of the third to tenth (NKA(3-10)) amino acids and the fourth to tenth (NKA(4-10)) amino acids. Values are MEAN±S.E.M. of 6-12 experiments. IC50 values estimated graphically from 50% inhibition point.
Urinary bladders from several hamsters were pooled, minced, and homogenized in 50 mM TRIS-HCl (pH 7.4) containing 120 mM NaCl and 5 mM KCl at 4° C. and centrifuged at 48,000×g for 15 minutes. The pellet was resuspended for 30 minutes in 50 mM TRIS-HCl (pH 7.4) containing 10 mM EDTA and 300 mM KCl at 4° C. The suspension was centrifuged as above and the pellet was washed two times in plain 50 mM TRIS-HCl (pH 7.4) and centrifuged similarly. […] Filter-bound radioactivity was quantitated in a gamma counter. Specific binding (maximum) was defined as the difference between binding in the presence and absence of 1 μM unlabeled neurokinin A. Competition of iodinated neurokinin A binding by test compounds or standards was expressed as a percentage of this maximum competition. […]

Compound | effect on NKA-mediated contractile activity ([1]; NKA with 10 μM test compound (figure legends)) | contractile effect of test compound alone [1] | Schild plot slope (NKA receptor) | IC50 [2] | IC50 [3]
CC(C)C[C@@H](CN[C@@H](CC(C)C)C(N)=O)NC(=O)CNC(=O)[C@@H](NC(=O)[C@H](Cc1ccccc1)NC(=O)[C@H](CO)NC(=O)[C@@H](N)CC(=O)O)C(C)C [MDL 28,564, H-Asp-Ser-Phe-Val-Gly-Leu.PSI.(CH2 NH)Leu-NH2] (HELM PEPTIDE1{D.S.F.V.G.[CC(C)C[C@@H](CN[C@@H](CC(C)C)C(N)=O)N[*:1]]}$$$$V2.0) | antagonistic effect | not produce any contraction |  |  | 
CC(C)C[C@@H](CN(C)[C@@H](CC(C)C)C(N)=O)NC(=O)CNC(=O)[C@@H](NC(=O)[C@H](Cc1ccccc1)NC(=O)[C@H](CO)NC(=O)[C@@H](N)CC(=O)O)C(C)C [MDL 29,916, H-Asp-Ser-Phe-Val-Gly-Leu.PSI.(CH2 NCH3)Leu-NH2] (HELM PEPTIDE1{D.S.F.V.G.[CC(C)C[C@@H](CN(C)[C@@H](CC(C)C)C(N)=O)N[*:1]]}$$$$V2.0) |  | not produce any contraction | -0.99 |  | 
CC(C)CCN(C[C@H](CC(C)C)NC(=O)CNC(=O)[C@@H](NC(=O)[C@H](Cc1ccccc1)NC(=O)[C@H](CO)NC(=O)[C@@H](N)CC(=O)O)C(C)C)[C@@H](CC(C)C)C(N)=O [MDL 101,608, Asp--Ser--Phe--Val--Gly--Leu(.psi.(CH2 N(Iva))Leu--NH2] (HELM PEPTIDE1{D.S.F.V.G.[CC(C)CCN(C[C@H](CC(C)C)N[*:1])[C@@H](CC(C)C)C(N)=O]}$$$$V2.0; N-terminus assumed) |  |  |  | 3 µM | 175 nM
